Data source: PubChem BioAssay AID1508597 (Cure First, 2020)

Purpose: 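Knock-downs altering ovarian cancer cell survival with or without PARP inhibitor rucaparib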 (primary screen)
System: human ovarian carcinoma lines grown from tumours: OCI-P5x (papillary serous) and OCI-C5x (clear cell)
Reagents: siRNA pool against human genes, 1.25 pmol siRNA per well
Duration: 72 h or 96 h, depending on the cell culture
Treatment: rucaparib 20 µM (about IC30) or vehicle, present until read-out
Detection: 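Luminescent ATP-based viability assay read 72 or 96 h after transfection, depending on culture, given as normalised percent viability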
Reading the numbers: viability, normalised: higher = more viable cells remaining
Hit rule: 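Active when normalised viability falls below 80 percent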
Meaning of the calls: active = viability under 80%; inactive = viability 80% or more
This is a random part of about 2,100 reagents tested. 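Calls flag viability under 80% in either arm, not effects specific to rucaparib; the reference for percent is not stated.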 No sequences are given here. The record does not give: the 100% reference.

| gene | rucaparib or vehicle | cell line | technical replicate | viability, normalised (%) | call |
| --- | --- | --- | --- | --- | --- |
| CDKL4 | Rucaparib | OCI-C5x (clear cell) | 1 | 52.9 | active |
| CDKL4 | Rucaparib | OCI-C5x (clear cell) | 2 | 73.7 | active |
| CDKL4 | Rucaparib | OCI-C5x (clear cell) | 3 | 48.5 | active |
| CDKL4 | Rucaparib | OCI-P5x (serous) | 1 | 86.3 | inactive |
| CDKL4 | Rucaparib | OCI-P5x (serous) | 2 | 32.5 | active |
| CDKL4 | Rucaparib | OCI-P5x (serous) | 3 | 80.6 | inactive |
| CDKL4 | Vehicle | OCI-C5x (clear cell) | 1 | 42 | active |
| CDKL4 | Vehicle | OCI-C5x (clear cell) | 2 | 56.3 | active |
| CDKL4 | Vehicle | OCI-C5x (clear cell) | 3 | 65.4 | active |
| CDKL4 | Vehicle | OCI-P5x (serous) | 1 | 116 | inactive |
| CDKL4 | Vehicle | OCI-P5x (serous) | 2 | 106 | inactive |
| CDKL4 | Vehicle | OCI-P5x (serous) | 3 | 108 | inactive |

Next part; the last 2 above are carried over.
| gene | rucaparib or vehicle | cell line | technical replicate | viability, normalised (%) | call |
| --- | --- | --- | --- | --- | --- |
| CDKL4 | Vehicle | OCI-P5x (serous) | 2 | 106 | inactive |
| CDKL4 | Vehicle | OCI-P5x (serous) | 3 | 108 | inactive |
| ITPKA | Rucaparib | OCI-C5x (clear cell) | 1 | 53 | active |
| ITPKA | Rucaparib | OCI-C5x (clear cell) | 2 | 38.7 | active |
| ITPKA | Rucaparib | OCI-C5x (clear cell) | 3 | 54.4 | active |
| ITPKA | Rucaparib | OCI-P5x (serous) | 1 | 67.5 | active |
| ITPKA | Rucaparib | OCI-P5x (serous) | 2 | 71 | active |
| ITPKA | Rucaparib | OCI-P5x (serous) | 3 | 55.1 | active |
| ITPKA | Vehicle | OCI-C5x (clear cell) | 1 | 44.8 | active |
| ITPKA | Vehicle | OCI-C5x (clear cell) | 2 | 40.5 | active |
| ITPKA | Vehicle | OCI-C5x (clear cell) | 3 | 34.7 | active |
| ITPKA | Vehicle | OCI-P5x (serous) | 1 | 75.2 | active |
| ITPKA | Vehicle | OCI-P5x (serous) | 2 | 58.9 | active |
| ITPKA | Vehicle | OCI-P5x (serous) | 3 | 67 | active |
